Measured values taken from PubChem BioAssay AID1347075 (National Center for Advancing Translational Sciences (NCATS), 2019).
Values joined by “and” are separate entries in the source; they are usually repeats but may differ in a detail not shown here. Equal values may be shown once. Hit rate of the full screen: of about 400,000 compounds, about 5,500 (1.4%) were called active. The inconclusive results got no clear call from the source; some entries with a clear call stand among them for comparison. The call rests on the fitted dose curve; in most records, active means well fitted cell-killing curve with a large enough effect; inconclusive means small, poorly fitted or top-dose-only effect, or effect the other way; inactive means flat fitted curve, though single readings scatter. Potencies of inconclusive entries are doubtful fits and often do not repeat.

Test: qHTS assay for MDR1-selective chemotherapeutics: Primary screen using the parental adenocarcinoma cell KB-3-1; further: nearly all actives have a fitted effect of over 60% in size
Conditions: KB-3-1 viability, CellTiter-Glo ATP luminescence, 72 h; activity change, negative = cytotoxic: at 46.1 µM (top of the series)
Summary of the method: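 Luminescent ATP read-out (CellTiter-Glo) measures survival of drug-naive KB-3-1 cells after 72 h compound exposure at 37 °C. Titration series was screened from lowest to highest concentration, with DMSO vehicle plates as background controls.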
On the % scale 0 is the no-effect control and ±100 the full control effect; potency means the concentration at half of the fitted maximal effect.

Row | SMILES | Potency | activity change, negative = cytotoxic
1 | CC(C)(C)OC(=O)[C@H](Cc1ccccc1)NC(=O)c1nc[nH]c1C(=O)N[C@@H](Cc1ccccc1)C(=O)OC(C)(C)C | active: 16.4 µM | 
2 | Cc1cccn2c(=O)c3cc(C#N)c(=N)n(CCN4CCOCC4)c3nc12 |  | inactive: 14.2%
3 | COC(=O)c1c(C)oc2ccc(NS(=O)(=O)c3cccs3)cc12 | inconclusive: 12.6 µM [cytotoxic, partial curve] | 
4 | Cc1ccnc2c(Cl)c(Cl)ccc12 |  | inactive: 11.8%
5 | Cc1nn2c(COc3ccc(NC(=O)c4ccccc4Cl)cc3)nnc2c2ccccc12 | inconclusive: 23.1 µM [cytotoxic, single point] | 
6 | Cc1ccc(C(=O)OCC(=O)N2CC(C)CC(C)C2)cc1S(=O)(=O)N1CCCCC1 (configuration not stated) | inconclusive: 25.9 µM [cytotoxic, single point] | 
7 | CC(C)c1ccc(/C=C/c2[nH]c(=O)[nH]c(=O)c2[N+](=O)[O-])cc1 |  | inactive: 1.99%
8 | COc1ccc(-n2c(C)nc3c(cnn3-c3ccc(C)c(C)c3)c2=O)cc1 | inconclusive: 32.6 µM [cytotoxic, single point] | 
9 | CCOC(=O)C1C(=O)C=C(c2ccc(C)cc2)CC1c1ccccc1 (configuration not stated) |  | inactive: -19.8%
10 | COc1ccc(/C=C(\C#N)c2c[nH]c3ccccc23)cc1 | active: 1.64 µM | 
11 | CC(=O)N1c2ccc(S(=O)(=O)NCC3CCC(C(=O)Nc4ccc(C)cn4)CC3)cc2CC1C (configuration not stated) | inconclusive: 10.3 µM [cytotoxic, single point] | 
12 | Cc1ccc(/C=N/NC(=O)CCn2nc(C)cc2C)c(C)c1 | inconclusive: 25.9 µM [cytotoxic, single point] | 
13 | c1ccc(Cn2ncc3c(N4CCCCC4)ncnc32)cc1 |  | inactive: -1.8%
14 | CC(=O)Nc1ccc(NC2=Nc3ccccc3N3C2=Nc2c(c(C)nn2-c2ccccc2)C3c2ccccc2)cc1 (configuration not stated) | active: 8.2 µM | 
15 | CN1CSC2=C(C#N)C(c3cccc(OCc4ccccc4)c3)CC(=O)N2C1 (configuration not stated) | inconclusive: 16.4 µM [cytotoxic, single point] | 
16 | O=C(CNC(=O)c1ccc(S(=O)(=O)N2CCCC2)cc1)N/N=C/c1ccccc1Cl |  | inactive: 2.66%
17 | CC(C)NC(=S)N/N=C1\CCCCC1C1CCCCC1 (configuration not stated) | inconclusive: 20.6 µM [cytotoxic, single point] | 
18 | COc1cc(C(=O)NCCCN2CCCC2=O)ccc1OCc1ccc(Cl)cc1Cl | inconclusive: 29.1 µM [cytotoxic, single point] | 
19 | Oc1ccccc1/C=N/Nc1nc2ccccc2o1 | inconclusive: 4.61 µM [cytotoxic, full curve] | 
20 | CCn1c(Cn2nnc(-c3ccccc3)n2)nnc1SCc1ccc(Cl)c(Cl)c1 | inconclusive: 20.6 µM [cytotoxic, single point] | 
21 | Cc1nc2ccccc2c(=O)n1/N=C/c1cc(Br)ccc1O | inconclusive: 14.6 µM [cytotoxic, partial curve] | 
22 | CCOC(=O)c1c[nH]c2c(C(=O)c3ccccc3)cc(Cl)cc2c1=O | inconclusive: 29.1 µM [cytotoxic, single point] | 
23 | CCCCNC(=O)NNC(=O)COc1cc(C)cc(C)c1 |  | inactive: 20.8%
24 | Cc1nc2ccc(C(=O)N3c4ccccc4CC3C)cc2s1 (configuration not stated) | inconclusive: 29.1 µM [cytotoxic, single point] | 

Gathered by group, the entries above with four or more nitrogen atoms
Row | SMILES | Potency | activity change, negative = cytotoxic
1 | CC(C)(C)OC(=O)[C@H](Cc1ccccc1)NC(=O)c1nc[nH]c1C(=O)N[C@@H](Cc1ccccc1)C(=O)OC(C)(C)C | active: 16.4 µM | 
2 | Cc1cccn2c(=O)c3cc(C#N)c(=N)n(CCN4CCOCC4)c3nc12 |  | inactive: 14.2%
5 | Cc1nn2c(COc3ccc(NC(=O)c4ccccc4Cl)cc3)nnc2c2ccccc12 | inconclusive: 23.1 µM [cytotoxic, single point] | 
8 | COc1ccc(-n2c(C)nc3c(cnn3-c3ccc(C)c(C)c3)c2=O)cc1 | inconclusive: 32.6 µM [cytotoxic, single point] | 
11 | CC(=O)N1c2ccc(S(=O)(=O)NCC3CCC(C(=O)Nc4ccc(C)cn4)CC3)cc2CC1C (configuration not stated) | inconclusive: 10.3 µM [cytotoxic, single point] | 
12 | Cc1ccc(/C=N/NC(=O)CCn2nc(C)cc2C)c(C)c1 | inconclusive: 25.9 µM [cytotoxic, single point] | 
13 | c1ccc(Cn2ncc3c(N4CCCCC4)ncnc32)cc1 |  | inactive: -1.8%
14 | CC(=O)Nc1ccc(NC2=Nc3ccccc3N3C2=Nc2c(c(C)nn2-c2ccccc2)C3c2ccccc2)cc1 (configuration not stated) | active: 8.2 µM | 
16 | O=C(CNC(=O)c1ccc(S(=O)(=O)N2CCCC2)cc1)N/N=C/c1ccccc1Cl |  | inactive: 2.66%
20 | CCn1c(Cn2nnc(-c3ccccc3)n2)nnc1SCc1ccc(Cl)c(Cl)c1 | inconclusive: 20.6 µM [cytotoxic, single point] | 

For reference, 2 of the compounds above:
Row | SMILES | Potency | activity change, negative = cytotoxic
7 | CC(C)c1ccc(/C=C/c2[nH]c(=O)[nH]c(=O)c2[N+](=O)[O-])cc1 |  | inactive: 1.99%
8 | COc1ccc(-n2c(C)nc3c(cnn3-c3ccc(C)c(C)c3)c2=O)cc1 | inconclusive: 32.6 µM [cytotoxic, single point] | 

Next results

Row | SMILES | Potency | activity change, negative = cytotoxic
25 | CCOc1ccc(NC(=O)Nc2ccccc2SC)cc1 | inconclusive: 18.4 µM [cytotoxic, single point] | 
26 | COC(=O)[C@]12CCCCC=C1N(Cc1ccc(Cl)cc1Cl)C(=O)[C@H](CC(=O)NCCC(C)C)C2 | inconclusive: 29.1 µM [cytotoxic, partial curve, poor fit] | 
27 | CC(=O)Nc1ccc(-c2ccnc3c2CC(C)(C(=O)Nc2cccc(Oc4ccccc4)c2)O3)cc1 (configuration not stated) | inconclusive: 20.6 µM [cytotoxic, single point] | 
28 | COc1cc(/C=C2\CC/C(=C\c3ccc(OCCO)c(OC)c3)C2=O)ccc1OCCO |  | inactive: -3.76%
29 | CC1=CC(C)[C@H](/C=N/n2c(=O)[nH]c3c([nH]c4ccc(C)cc43)c2=O)C(C)C1 (some centres not stated) | inconclusive: 29.1 µM [rising, single point] | 
30 | COc1ccc(-c2noc(CCC(=O)NCc3cc(Br)ccc3OC)n2)cc1 |  | inactive: -12.3%
31 | Cc1cccc(Cn2c(SCc3ccc(C(=O)N4CCC(C)CC4)cc3)nc3ccncc32)c1 | active: 23.1 µM | 
32 | CC(Oc1ccccc1)C(=O)Nc1cccc(-c2nc3ccccc3[nH]2)c1 (configuration not stated) | inconclusive: 32.6 µM [cytotoxic, single point] | 
33 | COc1ccc(CCNC(=O)CSc2nc3ccsc3c(=O)n2Cc2ccccn2)cc1OC |  | inactive: 7.89%
34 | Cc1[nH]n(-c2ccccc2)c(=O)c1/C=N/N1C(=O)c2cccc3cccc(c23)C1=O | inconclusive: 29.1 µM [cytotoxic, single point] | 
35 | Cc1ccc(S(=O)(=O)Nc2cnc3ccccc3c2)cc1 | inconclusive: 18.4 µM [cytotoxic, single point] | 
36 | C=CCN(c1ccccc1Cl)S(=O)(=O)c1cccc(C(=O)NCCc2ccc(OC)cc2)c1 | active: 23.1 µM | 
37 | COc1ccccc1N1CC(C(=O)NC2CCCCCC2)CC1=O (configuration not stated) |  | inactive: -6.76%
38 | CSc1ncc2c(n1)-c1cc(C)ccc1SC2 | inconclusive: 20.6 µM [cytotoxic, single point] | 
39 | CCC(C)/C(C)=N/NC(=O)c1ccc(CSc2nc3ccccc3s2)cc1 (configuration not stated) | inconclusive: 29.1 µM [cytotoxic, single point] | 
40 | Cc1cc(C)c2oc(C(=O)Nc3sc4c(c3C(=O)NCc3ccco3)CCCC4)cc(=O)c2c1 |  | inactive: -3.48%
41 | COc1ccc(C2=NOC(C(=O)NCc3ccccc3)C2)cc1 (configuration not stated) | active: 7.31 µM | 
42 | COc1ccc(N2CCN(CCCNC(=O)C3(S(=O)(=O)c4ccc(Cl)cc4)CC3)CC2)cc1 |  | inactive: 0.777%
43 | COc1ccccc1/C=C/C(=O)OCC(=O)Nc1cc(C(F)(F)F)ccc1N1CCOCC1 | inconclusive: 16.4 µM [cytotoxic, single point] | 
44 | O=C(COC(=O)/C=C/c1ccc(S(=O)(=O)N2CCOCC2)cc1)NC1CCCCCCC1 |  | inactive: 3.62%
45 | Cc1sc2cc3c(c(C(=O)c4ccccc4)[n+]2c1C)-c1cccc2cccc-3c12 | active: 7.31 µM | 
46 | O=C(CCn1c(=O)c2cccn2c2cccnc21)NCc1cccc(Cl)c1 |  | inactive: -7.77%
47 | Cc1c(N=Nc2c(-c3ccc([N+](=O)[O-])cc3)[nH]n(C(N)=S)c2=O)cccc1[N+](=O)[O-] | active: 20.6 µM | 
48 | Cc1cccc2sc(NC(=O)c3cc(S(=O)(=O)N(C)C)ccc3N3CCCC3)nc12 |  | inactive: -28.8%

Row | SMILES | Potency | activity change, negative = cytotoxic
49 | CCCS(=O)(=O)NC(=O)C1(C)CCN(C(=O)COc2ccccc2)C1 (configuration not stated) |  | inactive: 0%
50 | CSc1nc(SCc2ccccc2)[nH]c(=O)n1 |  | inactive: -4.46%
51 | COc1ccc(NC(=O)C(=O)NCCC2CCCCN2S(=O)(=O)c2ccccc2)cc1 (configuration not stated) | active: 4.61 µM | 
52 | Cc1ccc(NC(=O)c2nnn(CC(=O)Nc3ccc4c(c3)OCO4)c2N)cc1C |  | inactive: 1.45%
53 | COc1ccccc1NC(=O)Cn1c(=O)n(-c2ccc(C)cc2)c(=O)c2ccc(C(=O)NCc3ccco3)cc21 |  | inactive: 11.5%
54 | COc1ccc(NC(=O)CN(C)C(=O)c2ccc3c(c2)OCCO3)cc1 |  | inactive: -25.4%
55 | Cc1ccc(-c2nnc(-c3ccccc3S(=O)(=O)Cc3ccc(Cl)cc3)o2)cc1 | inconclusive: 23.1 µM [cytotoxic, single point] | 
56 | Cc1cc(C)nc(NC(=S)NC(=O)c2ccccc2F)n1 |  | inactive: -3.27%
57 | O=C(CSc1ncnc2sc3c(c12)CCCCC3)NCc1ccco1 | active: 7.31 µM and inconclusive: 29.1 µM [cytotoxic, single point] | 
58 | COc1ccc(OC)c2sc(N(CCN(C)C)C(=O)/C=C/c3cccs3)nc12 | inconclusive: 18.4 µM [cytotoxic, single point] | 
59 | COC(=O)c1cc(S(=O)(=O)NCCCN2CCCC2=O)cn1C |  | inactive: 16.1%
60 | Cc1ccc(C)c(NC(=S)NNC(=S)Nc2ccc(C(C)C)cc2)c1 | inconclusive: 29.1 µM [cytotoxic, single point] | 
61 | COc1ccc2c(c1)CC(=O)NC=C2 |  | inactive: 3.98%
62 | Cn1nc([N+](=O)[O-])nc1Sc1nnc(-c2ccccc2)o1 | inconclusive: 25.9 µM [cytotoxic, partial curve, poor fit] | 
63 | CN(/N=C/c1ccc(N(C)C)cc1)C1=NS(=O)(=O)c2ccccc21 | inconclusive: 3.26 µM [cytotoxic, partial curve, poor fit] | 
64 | CCOC(=O)c1[nH]c(C)c(/C(O)=C2\C(=O)C(=O)N(CCCN3CCOCC3)C2c2cccs2)c1C (configuration not stated) | inconclusive: 29.1 µM [cytotoxic, single point] | 
65 | Cc1cc2c3c(c1)C(C)(c1ccccc1)CC(C)(C)N3C(=O)C21C(C#N)=C(N)OC2=C1C(=O)CC(C)(C)C2 (configuration not stated) | inconclusive: 29.1 µM [cytotoxic, single point] | 
66 | Cc1ccc(S(=O)(=O)N2CCN(C(=O)c3ccccc3)C2C(C)C)cc1 (configuration not stated) |  | inactive: -5.19%
67 | CCOC(=O)C1=C(CNCc2ccc(C)cc2)NC(=O)NC1c1ccc(OC)cc1 (configuration not stated) | inconclusive: 29.1 µM [cytotoxic, single point] | 
68 | COc1cccc(CN(C)Cc2cc(=O)oc3cc(O)c(Cl)cc23)c1 | inconclusive: 29.1 µM [cytotoxic, single point] | 
69 | CCN(CC)CCNC(=O)c1c(O)c2cccc3c2n(c1=O)CCC3 |  | inactive: -1.68%
70 | O=C(Nc1ccc(Cl)c(C(F)(F)F)c1)[C@@H]1CC=C[C@@H]2CCN(Cc3ccc(Cl)c(Cl)c3)C(=O)[C@@H]21 | inconclusive: 18.4 µM [cytotoxic, single point] | 
71 | CCOC(=O)Nc1nc2ccc(Cn3cccc3)cc2[nH]1 | active: 0.58 µM | 
72 | O=c1[nH][nH]c(C(F)(F)F)c1C=Nc1cccc(Cl)c1 |  | inactive: 3.42%
